# In all, about 410,000 compounds went through this assay and about 18,000 (4.4%) were called active. Inconclusive results, whose numbers are uncertain, are shown with a selection of clear calls. Cut-off read from the data, not from the text of the source: active = activity change below about -60%; inconclusive = no clear call, values can overlap the other calls; inactive = above about -39%.
# Assay: qHTS Assay for inhibitors of the human cytomegalovirus (HCMV)
# Conditions: HFF cells, HCMV-luciferase reporter, 72 h; at 57.5 µM; stronger effect = lower value
# In short: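 Two compound doses tested in HFFs infected with HCMV-luciferase, MOI 1 PFU/cell, 72 h at 37C. Lysate luminescence read with OneGlo; data normalized against buffer-only and 10uM Salinomycin inhibitor controls.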
# % is set by controls: 0 for no effect and ±100 for the full control effect.
row,SMILES,"activity change, negative = inhibition"
1,COc1ccccc1CN1CCN(Cc2ccc(Cl)cc2)CC1,inconclusive: -41.3%
2,Cc1ccc(-c2csc3nc4c5ccccc5c(NCCCN(C)C)nn4c(=O)c23)cc1,active: -99%
3,CCOc1ccc(OCCSc2nc3ccccc3o2)cc1,inactive: -22.5%
4,COc1ccc(-n2c(C)c(C(C)=O)c3cc(OC(=O)COc4ccccc4)ccc32)cc1,inconclusive: -43%
5,CCc1ccc(NC(=O)CN2C(=O)C(c3ccc(Cl)cc3)=NC23CCCCC3)cc1,inconclusive: -40.6%
6,O=C(Nc1ccc([N+](=O)[O-])cc1)Nc1ccc2c(c1)OCCO2,inactive: -13.1%
7,Cc1c(CNC2CCCCC2)c(C(=O)O)c(C)n1Cc1cccc(Cl)c1,active: -85.4%
8,COc1ccc(NC(=O)c2ccc(C)cc2Cl)c([N+](=O)[O-])c1,inactive: 34%
9,CCCN(c1ccc(OCC)cc1)c1ncnc2nc[nH]c12,inconclusive: -48.4%
10,O=C(NC1CC2CCC(C1)N2Cc1nnnn1Cc1ccco1)NC12CC3CC(CC(C3)C1)C2 (centres undefined),inconclusive: -41.9%
11,CCCc1nc2oc3c(NCC(C)O)ncnc3c2c2c1CCCC2 (centres undefined),inconclusive: -40.4%
12,CCSc1nnc(NC(=O)C2CCCN(C(=O)c3ccc(Cl)cc3)C2)s1 (centres undefined),inactive: -26.8%
13,O=c1cc(NCc2ccccc2)nc2n1CCCS2,inconclusive: -44.3%
14,Cc1cc(C(=O)C(C(c2ccccc2)N2CCOCC2)N2CCOCC2)ccc1Cl (centres undefined),inactive: 7.45%
15,Cc1ccc(C(=O)NC2CCCN(c3ccc(C(F)(F)F)cn3)C2)cn1 (centres undefined),inconclusive: -45%
16,O=c1cc(N2CCCC2)c(-c2ccccc2)n[nH]1,inconclusive: -59.8%
17,CC(=O)Nc1cccc(NC(=O)CSc2nnc3ccc(-c4ccncc4)nn23)c1,inconclusive: -43.4%
18,O=C(NC(=S)NNS(=O)(=O)c1ccc(Cl)cc1)c1cccnc1,inconclusive: -41.8%
19,Cc1cccc(NC(=S)N(CCc2nc3cc(C)c(C)cc3[nH]2)Cc2cccnc2)c1,inactive: -22.8%
20,C/C(=N\Nc1nccnc1Cl)c1ccc(Cl)c(Cl)c1,inactive: 128%
21,Cc1cc(C(=O)NCc2cccs2)c(C)o1,inactive: 82.1%
22,Cn1c(=O)c2c(nc(NCCNC(=O)c3ccco3)n2Cc2ccc(Cl)cc2Cl)n(C)c1=O,active: -73.8%

row,SMILES,"activity change, negative = inhibition"
1,N#C/C(=C\c1ccc(-c2ccc(Br)cc2)o1)C(=O)NCCc1c[nH]c2ccccc12,inactive: -11.4%
2,CC(C)(C)NC(=O)CN(C(=O)CS(=O)CC(=O)Nc1ccc(F)cc1)c1ccccc1F (centres undefined),inconclusive: -41.2%
3,COc1ccc(N2CCN(CCCNC(=O)c3cc(Nc4ccc(OC)cc4OC)nc4ccccc34)CC2)cc1,inactive: -38.3%
4,O=S(=O)(c1ccccc1)c1nc(-c2ccccc2)oc1N1CCCC1,inconclusive: -45.9%
5,O=C1C=C(Nc2ccc(Cl)cc2)CC(c2ccco2)C1 (centres undefined),inconclusive: -43.9%
6,Cc1cc(C)c2c(CN3CC(C)OC(C)C3)cc(=O)oc2c1C (centres undefined),inconclusive: -54%
7,COc1ccc(NC(=O)c2sc3nc(-c4cccnc4)ccc3c2N)cc1OC,inconclusive: -43.2%
8,COc1cc(OC)cc(-c2cc3nc4c(c(N5CCN(c6cnccn6)CC5)n3n2)CCCC4)c1,inactive: 12.6%
9,CCCC(=O)Nc1nc(C)c(-c2csc(Nc3ccccc3OC)n2)s1,inconclusive: -44.3%
10,O=C(COc1ccc([N+](=O)[O-])cc1)Nc1ccc(C(=O)NCc2cccnc2)cc1,inactive: -6.72%
11,CCOC(=O)C1CCC(CN(Cc2ccccc2)S(=O)(=O)c2ccc(Br)cc2)CC1 (centres undefined),inconclusive: -40%
12,CC(OC(=O)c1cn(C)c2ccccc12)C(=O)N(C)c1ccccc1 (centres undefined),inconclusive: -47.9%
13,CCc1nc2ccccc2c(C(=O)NCc2ccccc2)c1C,active: -67.5%
14,Cn1c(-c2cccc(Br)c2)n[nH]c1=O,active: -72.5%
15,Cc1cccc(NC(=S)N2CCCCCC2)c1C,inconclusive: -45.8%
16,COc1ccc(S(=O)(=O)N2CCCN(CC(=O)Nc3ccc(OC)cc3OC)CC2)cc1,inactive: -21.3%
17,Cc1cc2nc(C(C)(C)C)c(Cc3ccccc3C(F)(F)F)n2c(C)c1Br,inactive: 8.33%
18,CC1(C)CC(=O)C=C(c2ccc(-c3cccc4c3sc3ccccc34)cc2)C1=O,inactive: -8.63%
19,Cn1c(=O)c2cc(NC(=O)NCCc3cccs3)ccc2n1Cc1cccc(C(F)(F)F)c1,inconclusive: -42.9%
20,Cc1[nH]c2ccccc2c1C(=O)C(=O)NC1CC1,inconclusive: -46.4%
21,O=CN1CCN(C(=S)Nc2ccc(OC(F)F)cc2)CC1,inconclusive: -44.6%
22,Cc1ccc(NCC(=O)Nc2cccc(S(=O)(=O)N(C)C)c2)cc1S(=O)(=O)N1CCCCCC1,active: -81.2%

# Structures above with a nitro group on carbon (three):
row,SMILES,"activity change, negative = inhibition"
6,O=C(Nc1ccc([N+](=O)[O-])cc1)Nc1ccc2c(c1)OCCO2,inactive: -13.1%
8,COc1ccc(NC(=O)c2ccc(C)cc2Cl)c([N+](=O)[O-])c1,inactive: 34%
10,O=C(COc1ccc([N+](=O)[O-])cc1)Nc1ccc(C(=O)NCc2cccnc2)cc1,inactive: -6.72%
